Results are given in words; binding and its absence hold for the method and conditions named.
Target: recombinant capsaicin synthase encoded by Pun1 (Capsicum chinense)
Assay: SEC; Superdex Increase 10/300, 0.4 mL/min, 50 mM TRIS/HCl pH 7.5, 5% glycerol, 150 mM NaCl; after Ni-NTA and concentration; enzyme activity of the fractions overlaid on UV280; preparation only partly purified; both purified

binding: no binding
B1: recombinant capsaicin synthase encoded by Pun1 (enzyme, UniProt A0A2G3D6U1 1-440)
chain: MAFALPSSLVSVCDKSFIKPSSLTPSTLRFHKLSFIDQSLSNMYIPCAFFYPKVQQRLEDSKNSDELSHIAHLLQTSLSQTLVSYYPYAGKLKDNATVDCNDMGAEFLSVRIKCSMSEILDHPHASLAESIVLPKDLPWANNCEGGNLLVVQVSKFDCGGIAISVCFSHKIGDGCSLLNFLNDWSSVTRDHTTTTLVPSPRFVGDSVFSTKTYGSLTTPQILSDLNECVQKRLIFPTDKLDALRAKVAEESGVKNPTRAEVVSALLFKCATKASSSMLPSKLVHFLNIRTMIKPRLPRNTIGNLSSIFSIEATNMQDMELPTLVRNLRKEVEVAYKKDQVEQNELILEVVESMREGKLPFENMDGYENVYTCSNLCKYPYYTVDFGWGRPERVCLGNGPSKNAFFLKDYKAGQGVEARVMLHKQQMSEFERNEELLEFIA

Source: PMC9606859, “Chemical Synthesis of Trans 8-Methyl-6-Nonenoyl-CoA and Functional Expression Unravel Capsaicin Synthase Activity Encoded by the Pun1 Locus” (Molecules, 2022)
